# Results published in article PMC7782553.
# Chains of the proteins cited; added tags and fusions are not shown.
# UniProt P67809: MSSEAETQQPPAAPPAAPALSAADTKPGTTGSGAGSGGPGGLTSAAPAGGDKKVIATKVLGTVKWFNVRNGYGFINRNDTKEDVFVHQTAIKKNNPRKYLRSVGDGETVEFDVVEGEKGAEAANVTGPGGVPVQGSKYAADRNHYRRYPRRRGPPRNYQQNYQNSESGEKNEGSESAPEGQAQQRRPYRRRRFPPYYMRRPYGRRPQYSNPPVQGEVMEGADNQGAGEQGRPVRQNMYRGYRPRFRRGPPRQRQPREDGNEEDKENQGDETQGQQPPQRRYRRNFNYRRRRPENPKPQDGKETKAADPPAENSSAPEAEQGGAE
# Results are given in words; binding and its absence hold for the method and conditions named. Binding seen in cells or lysates may run through a third protein. A yes stands for co-enrichment or nearness to the bait. Other partners may have been found.
# Target: T1, ubiquitin-specific peptidase 47 (USP47), endogenous (human (endogenous in K562 and primary CML cells)) (UniProt Q96K76)
# T1 sequence: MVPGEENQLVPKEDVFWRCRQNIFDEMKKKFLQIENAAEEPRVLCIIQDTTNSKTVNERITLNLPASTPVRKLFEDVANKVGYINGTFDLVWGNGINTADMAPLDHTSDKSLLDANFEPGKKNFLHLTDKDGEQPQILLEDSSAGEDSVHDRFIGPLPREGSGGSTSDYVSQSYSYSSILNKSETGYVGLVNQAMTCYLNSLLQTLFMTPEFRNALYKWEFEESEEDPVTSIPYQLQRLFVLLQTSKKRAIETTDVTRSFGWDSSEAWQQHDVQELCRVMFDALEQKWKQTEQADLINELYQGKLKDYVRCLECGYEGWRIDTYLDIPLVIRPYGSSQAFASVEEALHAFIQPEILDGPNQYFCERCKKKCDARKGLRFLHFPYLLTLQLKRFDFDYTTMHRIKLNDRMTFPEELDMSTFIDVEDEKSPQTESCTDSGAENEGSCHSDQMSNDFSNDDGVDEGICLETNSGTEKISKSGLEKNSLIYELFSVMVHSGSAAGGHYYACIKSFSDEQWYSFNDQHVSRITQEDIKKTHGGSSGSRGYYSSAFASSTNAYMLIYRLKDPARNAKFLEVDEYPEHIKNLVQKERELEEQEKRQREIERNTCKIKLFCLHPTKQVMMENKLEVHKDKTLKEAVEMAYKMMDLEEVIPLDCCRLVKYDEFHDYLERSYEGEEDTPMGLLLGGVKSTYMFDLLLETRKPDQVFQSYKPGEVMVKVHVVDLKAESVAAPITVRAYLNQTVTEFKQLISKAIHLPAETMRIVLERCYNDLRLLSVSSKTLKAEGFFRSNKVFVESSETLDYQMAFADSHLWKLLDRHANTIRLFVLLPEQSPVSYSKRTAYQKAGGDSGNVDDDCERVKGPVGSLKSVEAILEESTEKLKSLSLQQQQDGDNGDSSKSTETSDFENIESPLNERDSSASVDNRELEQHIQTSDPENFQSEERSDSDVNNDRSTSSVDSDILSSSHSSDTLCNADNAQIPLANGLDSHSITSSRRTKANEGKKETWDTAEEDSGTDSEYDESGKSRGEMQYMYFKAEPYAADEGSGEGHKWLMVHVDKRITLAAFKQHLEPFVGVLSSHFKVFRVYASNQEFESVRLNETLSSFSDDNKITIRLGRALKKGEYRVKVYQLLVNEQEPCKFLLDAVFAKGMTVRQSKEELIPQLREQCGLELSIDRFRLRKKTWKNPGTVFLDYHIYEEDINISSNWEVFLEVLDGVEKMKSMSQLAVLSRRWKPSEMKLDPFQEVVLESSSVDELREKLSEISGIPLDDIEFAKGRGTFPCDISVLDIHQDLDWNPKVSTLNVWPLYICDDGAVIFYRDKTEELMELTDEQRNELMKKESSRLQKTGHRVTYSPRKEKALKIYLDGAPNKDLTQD
# Test: affinity purification with mass spectrometry; immunoprecipitation with USP47 antibody from K562 cells; SDS-PAGE, Coomassie; two obvious bands cut out, trypsin, LC-MS/MS
substance,measurement,value
"Y-box binding protein 1 (YB-1), endogenous (from UniProt P67809 1-324)",binding,binds
